According to the supplement of paper PMC12823440, “Inhibitors supercharge kinase turnover through native proteolytic circuits” (Nature, 2025):
Where a name gives a salt, the structure may show the parent alone. This is one part of the list. The calls rarely recur for the same compound in another form.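 Kinases were expressed as nanoluciferase fusions in K562 cells and luminescence was read every 4 h between 2 and 18 h as percent of control, DMSO set to 100% and a positive control to 0%. A time point counts as decreased when the signal drops significantly (2 sigma). The hit call is the authors' own, does not follow from the count of time points alone, and its rule is not shown.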

Chains of the proteins cited; added tags and fusions are not shown. Lines headed by an entry give the natural chain unless they say otherwise; changes in a name come on top.
UniProt Q01974, whole entry: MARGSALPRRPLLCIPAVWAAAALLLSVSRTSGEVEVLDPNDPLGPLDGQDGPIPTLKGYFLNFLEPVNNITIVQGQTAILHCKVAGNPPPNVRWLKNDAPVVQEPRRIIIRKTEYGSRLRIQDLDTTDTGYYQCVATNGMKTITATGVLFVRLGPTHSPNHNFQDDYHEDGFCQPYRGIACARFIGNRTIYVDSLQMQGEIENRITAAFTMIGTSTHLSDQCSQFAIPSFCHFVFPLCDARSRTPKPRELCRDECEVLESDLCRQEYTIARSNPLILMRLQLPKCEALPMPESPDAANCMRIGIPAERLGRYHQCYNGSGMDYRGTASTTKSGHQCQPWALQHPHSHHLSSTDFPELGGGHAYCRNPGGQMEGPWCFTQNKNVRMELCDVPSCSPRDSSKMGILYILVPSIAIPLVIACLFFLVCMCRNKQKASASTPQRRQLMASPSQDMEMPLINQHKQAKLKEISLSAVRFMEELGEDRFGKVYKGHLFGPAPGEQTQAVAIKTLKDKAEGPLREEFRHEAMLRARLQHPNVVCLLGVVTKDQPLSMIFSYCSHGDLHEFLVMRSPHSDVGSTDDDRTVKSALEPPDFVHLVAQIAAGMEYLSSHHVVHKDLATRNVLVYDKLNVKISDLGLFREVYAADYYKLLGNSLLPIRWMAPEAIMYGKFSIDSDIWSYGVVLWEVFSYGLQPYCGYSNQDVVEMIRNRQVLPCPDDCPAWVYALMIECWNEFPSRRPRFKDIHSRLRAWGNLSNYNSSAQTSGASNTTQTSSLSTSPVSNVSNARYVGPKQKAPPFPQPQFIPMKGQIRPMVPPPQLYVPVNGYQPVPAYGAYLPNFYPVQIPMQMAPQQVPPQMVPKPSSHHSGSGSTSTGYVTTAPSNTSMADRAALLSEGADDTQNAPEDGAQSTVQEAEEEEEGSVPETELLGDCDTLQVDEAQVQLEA
UniProt Q15418, whole entry: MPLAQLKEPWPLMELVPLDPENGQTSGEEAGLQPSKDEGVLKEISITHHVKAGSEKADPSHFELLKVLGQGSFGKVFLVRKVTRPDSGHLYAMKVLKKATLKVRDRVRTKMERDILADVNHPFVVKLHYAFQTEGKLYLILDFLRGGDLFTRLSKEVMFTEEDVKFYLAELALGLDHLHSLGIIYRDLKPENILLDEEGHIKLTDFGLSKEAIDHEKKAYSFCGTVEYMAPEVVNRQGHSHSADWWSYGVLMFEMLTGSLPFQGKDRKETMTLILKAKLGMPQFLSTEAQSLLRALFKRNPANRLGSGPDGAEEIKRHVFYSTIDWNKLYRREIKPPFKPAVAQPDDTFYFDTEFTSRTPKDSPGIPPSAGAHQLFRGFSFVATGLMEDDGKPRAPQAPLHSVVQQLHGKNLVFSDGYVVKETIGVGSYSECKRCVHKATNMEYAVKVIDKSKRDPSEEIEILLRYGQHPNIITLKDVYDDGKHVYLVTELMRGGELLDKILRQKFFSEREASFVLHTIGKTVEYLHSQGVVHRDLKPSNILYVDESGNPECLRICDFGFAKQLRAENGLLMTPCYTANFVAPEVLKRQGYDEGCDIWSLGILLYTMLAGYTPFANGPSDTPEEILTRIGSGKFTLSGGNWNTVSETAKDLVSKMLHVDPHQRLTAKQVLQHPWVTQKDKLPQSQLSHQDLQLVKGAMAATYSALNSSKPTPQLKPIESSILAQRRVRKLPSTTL
UniProt Q9NYA1, whole entry: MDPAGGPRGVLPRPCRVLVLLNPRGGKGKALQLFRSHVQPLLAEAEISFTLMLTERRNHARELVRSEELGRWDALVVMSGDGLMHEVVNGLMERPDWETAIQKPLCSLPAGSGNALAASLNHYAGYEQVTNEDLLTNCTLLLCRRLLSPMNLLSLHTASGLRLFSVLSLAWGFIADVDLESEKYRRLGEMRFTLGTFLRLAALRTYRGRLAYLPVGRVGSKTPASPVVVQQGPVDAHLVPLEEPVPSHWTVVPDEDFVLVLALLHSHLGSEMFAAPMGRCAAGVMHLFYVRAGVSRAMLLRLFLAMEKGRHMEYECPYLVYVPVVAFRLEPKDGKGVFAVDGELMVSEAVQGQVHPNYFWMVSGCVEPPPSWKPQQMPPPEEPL
UniProt Q9Y6E0: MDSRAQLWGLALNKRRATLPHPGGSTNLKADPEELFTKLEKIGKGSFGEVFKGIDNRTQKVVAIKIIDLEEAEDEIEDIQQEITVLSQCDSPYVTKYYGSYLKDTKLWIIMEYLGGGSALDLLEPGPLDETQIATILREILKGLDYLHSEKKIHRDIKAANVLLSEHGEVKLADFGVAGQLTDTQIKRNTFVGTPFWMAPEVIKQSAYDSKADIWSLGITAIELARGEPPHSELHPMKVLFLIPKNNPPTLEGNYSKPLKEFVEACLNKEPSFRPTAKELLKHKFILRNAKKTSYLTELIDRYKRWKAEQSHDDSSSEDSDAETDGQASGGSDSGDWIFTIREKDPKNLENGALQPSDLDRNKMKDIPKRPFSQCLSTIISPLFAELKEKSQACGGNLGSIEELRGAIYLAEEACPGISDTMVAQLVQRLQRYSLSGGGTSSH
UniProt Q15208: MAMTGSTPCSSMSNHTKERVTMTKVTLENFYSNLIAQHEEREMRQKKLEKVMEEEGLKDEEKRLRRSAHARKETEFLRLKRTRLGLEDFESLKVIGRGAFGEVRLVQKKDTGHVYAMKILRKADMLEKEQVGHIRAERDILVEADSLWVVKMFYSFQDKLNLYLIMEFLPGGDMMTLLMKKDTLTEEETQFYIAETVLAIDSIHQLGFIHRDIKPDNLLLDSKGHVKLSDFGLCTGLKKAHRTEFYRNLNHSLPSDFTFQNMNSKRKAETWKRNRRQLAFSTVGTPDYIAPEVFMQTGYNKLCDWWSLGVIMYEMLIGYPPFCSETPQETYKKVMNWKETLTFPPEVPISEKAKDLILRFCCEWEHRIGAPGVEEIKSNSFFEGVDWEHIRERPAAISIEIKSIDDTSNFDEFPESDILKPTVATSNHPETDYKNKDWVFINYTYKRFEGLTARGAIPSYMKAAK
UniProt P42680: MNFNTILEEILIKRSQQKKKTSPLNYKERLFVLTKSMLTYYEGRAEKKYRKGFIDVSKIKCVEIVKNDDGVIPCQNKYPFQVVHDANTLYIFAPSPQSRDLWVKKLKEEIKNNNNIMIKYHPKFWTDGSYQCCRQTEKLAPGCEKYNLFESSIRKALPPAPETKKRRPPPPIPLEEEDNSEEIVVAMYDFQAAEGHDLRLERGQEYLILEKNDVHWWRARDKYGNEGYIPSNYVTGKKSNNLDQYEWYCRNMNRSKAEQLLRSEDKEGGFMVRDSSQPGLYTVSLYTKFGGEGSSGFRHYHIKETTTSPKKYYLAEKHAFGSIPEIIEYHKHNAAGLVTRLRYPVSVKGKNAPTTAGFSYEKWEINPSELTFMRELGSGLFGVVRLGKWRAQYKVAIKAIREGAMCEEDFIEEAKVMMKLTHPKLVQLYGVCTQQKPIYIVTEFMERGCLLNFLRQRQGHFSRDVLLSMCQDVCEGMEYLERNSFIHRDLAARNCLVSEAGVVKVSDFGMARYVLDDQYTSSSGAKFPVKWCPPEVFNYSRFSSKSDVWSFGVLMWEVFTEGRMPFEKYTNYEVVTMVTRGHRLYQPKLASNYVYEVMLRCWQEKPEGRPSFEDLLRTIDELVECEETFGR
UniProt Q6PHR2: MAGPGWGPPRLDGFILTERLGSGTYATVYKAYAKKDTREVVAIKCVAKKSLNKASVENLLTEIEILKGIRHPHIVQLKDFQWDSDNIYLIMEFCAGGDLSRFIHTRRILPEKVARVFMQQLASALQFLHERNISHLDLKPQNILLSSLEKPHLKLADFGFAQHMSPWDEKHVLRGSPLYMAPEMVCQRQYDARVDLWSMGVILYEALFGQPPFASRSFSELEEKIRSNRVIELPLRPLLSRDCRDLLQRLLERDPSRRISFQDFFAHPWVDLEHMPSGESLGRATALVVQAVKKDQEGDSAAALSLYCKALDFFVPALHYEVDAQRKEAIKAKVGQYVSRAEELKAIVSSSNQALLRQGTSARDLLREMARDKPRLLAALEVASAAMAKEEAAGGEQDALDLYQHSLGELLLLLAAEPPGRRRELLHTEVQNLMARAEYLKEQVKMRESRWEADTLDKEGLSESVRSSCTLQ
UniProt P07947, whole entry, looked up: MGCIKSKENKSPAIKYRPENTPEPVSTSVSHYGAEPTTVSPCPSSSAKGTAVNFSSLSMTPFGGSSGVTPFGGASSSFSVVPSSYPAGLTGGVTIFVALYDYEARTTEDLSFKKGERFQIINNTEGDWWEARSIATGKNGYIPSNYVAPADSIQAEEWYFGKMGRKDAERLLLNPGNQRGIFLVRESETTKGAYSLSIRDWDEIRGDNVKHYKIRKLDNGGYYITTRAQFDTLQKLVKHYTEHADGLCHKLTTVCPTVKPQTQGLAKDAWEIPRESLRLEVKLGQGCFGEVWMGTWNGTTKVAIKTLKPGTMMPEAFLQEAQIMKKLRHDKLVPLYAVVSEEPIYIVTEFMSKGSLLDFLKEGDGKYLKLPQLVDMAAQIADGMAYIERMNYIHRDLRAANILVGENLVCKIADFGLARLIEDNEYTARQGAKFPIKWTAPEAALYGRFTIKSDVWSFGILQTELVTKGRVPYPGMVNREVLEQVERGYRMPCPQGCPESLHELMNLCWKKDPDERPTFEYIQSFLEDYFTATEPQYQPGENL
UniProt P43403: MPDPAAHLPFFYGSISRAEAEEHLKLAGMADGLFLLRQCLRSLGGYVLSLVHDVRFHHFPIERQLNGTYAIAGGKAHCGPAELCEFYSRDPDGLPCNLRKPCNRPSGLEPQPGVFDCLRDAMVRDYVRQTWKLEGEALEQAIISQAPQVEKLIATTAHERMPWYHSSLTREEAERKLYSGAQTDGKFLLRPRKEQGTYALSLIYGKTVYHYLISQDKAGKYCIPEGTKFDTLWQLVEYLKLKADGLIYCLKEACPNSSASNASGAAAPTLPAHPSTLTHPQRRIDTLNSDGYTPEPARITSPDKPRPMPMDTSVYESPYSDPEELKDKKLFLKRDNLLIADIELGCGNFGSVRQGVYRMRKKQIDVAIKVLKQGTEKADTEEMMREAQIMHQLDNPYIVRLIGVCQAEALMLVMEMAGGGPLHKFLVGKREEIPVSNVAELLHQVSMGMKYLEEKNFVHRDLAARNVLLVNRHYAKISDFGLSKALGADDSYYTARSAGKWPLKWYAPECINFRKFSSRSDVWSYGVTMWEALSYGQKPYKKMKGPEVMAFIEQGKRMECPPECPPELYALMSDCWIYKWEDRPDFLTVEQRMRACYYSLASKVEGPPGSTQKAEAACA
UniProt P11802: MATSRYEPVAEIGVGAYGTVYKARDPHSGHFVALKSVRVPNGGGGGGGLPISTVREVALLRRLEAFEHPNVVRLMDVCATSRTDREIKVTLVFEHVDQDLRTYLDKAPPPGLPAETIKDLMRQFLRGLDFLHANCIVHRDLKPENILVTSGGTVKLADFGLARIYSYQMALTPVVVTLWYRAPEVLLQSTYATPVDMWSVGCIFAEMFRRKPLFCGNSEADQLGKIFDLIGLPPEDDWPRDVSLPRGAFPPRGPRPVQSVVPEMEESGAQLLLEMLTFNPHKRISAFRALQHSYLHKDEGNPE
UniProt P50613: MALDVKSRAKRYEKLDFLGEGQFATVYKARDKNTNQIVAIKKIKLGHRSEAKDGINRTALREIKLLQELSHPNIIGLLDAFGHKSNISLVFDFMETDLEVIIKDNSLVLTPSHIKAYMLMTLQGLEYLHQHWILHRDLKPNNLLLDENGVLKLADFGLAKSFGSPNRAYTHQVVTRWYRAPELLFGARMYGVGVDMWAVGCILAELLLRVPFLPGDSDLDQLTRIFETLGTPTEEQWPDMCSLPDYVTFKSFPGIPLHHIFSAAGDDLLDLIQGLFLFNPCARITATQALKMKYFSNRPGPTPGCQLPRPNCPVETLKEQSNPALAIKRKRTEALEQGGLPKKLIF
UniProt P50750, whole entry: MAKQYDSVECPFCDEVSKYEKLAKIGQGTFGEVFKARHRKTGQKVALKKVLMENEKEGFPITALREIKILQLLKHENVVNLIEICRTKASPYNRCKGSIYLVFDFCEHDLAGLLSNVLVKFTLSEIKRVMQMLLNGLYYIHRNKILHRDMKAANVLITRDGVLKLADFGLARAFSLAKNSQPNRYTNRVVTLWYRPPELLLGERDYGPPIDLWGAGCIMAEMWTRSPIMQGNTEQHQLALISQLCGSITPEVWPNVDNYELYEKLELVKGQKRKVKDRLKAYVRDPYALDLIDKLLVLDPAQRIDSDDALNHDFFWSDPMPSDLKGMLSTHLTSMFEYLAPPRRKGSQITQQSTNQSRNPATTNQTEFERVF

Tests used:
Details in all cases: K562; 2-18 h
[1] = target: ROR2 (UniProt Q01974); assay: number of time points (of 5) at which kinase-Nluc abundance scored as decreased, DMSO-normalised (count); higher = more persistent destabilization
[2] = target: RPS6KA1 (UniProt Q15418); assay: as above
[3] = target: SPHK1 (UniProt Q9NYA1); assay: as above
[4] = target: SRC (UniProt P12931); assay: as above
[5] = target: STK24 (UniProt Q9Y6E0); assay: as above
[6] = target: STK38 (UniProt Q15208); assay: as above
[7] = target: SYK (UniProt P43405); assay: as above
[8] = target: TEC (UniProt P42680); assay: as above
[9] = target: TYK2 (UniProt P29597); assay: as above
[10] = target: ULK3 (UniProt Q6PHR2); assay: as above
[11] = target: YES1 (UniProt P07947); assay: as above
[12] = target: ZAK (UniProt Q9NYL2); assay: as above
[13] = target: ZAP70 (UniProt P43403); assay: as above
[14] = target: CDK4 (UniProt P11802); assay: number of time points (of 4; 2 h point missing) at which kinase-Nluc abundance scored as decreased, DMSO-normalised (count); higher = more persistent destabilization
[15] = target: CDK7 (UniProt P50613); assay: as above
[16] = target: CDK9 (UniProt P50750); assay: as above

Measured: number of time points

CN(C)CCCn1cc(C2=C(c3c[nH]c4ccccc34)C(=O)NC2=O)c2ccccc21 [Bisindolylmaleimide I] (2.5 µM)
0: all assays above

CNCCOc1ccccc1C(C)(C)Nc1nccn(-c2cc(C(=O)NC3CC3)ccc2C)c1=O [p38α inhibitor 2] (10 µM)
0: all assays above

COc1c(OCCCN2CCOCC2)ccc2c3n(c(=NC(=O)c4cnc(N)nc4)nc12)CCN3 [Copanlisib (dihydrochloride)] (10 µM)
1: [3] | [7]
2: [6] | [11] | [12]
3: [8] | [15]
4: [9] | [10] | [16]
0: all other assays above

COc1cc(OC)c(/C=C/S(=O)(=O)Cc2ccc(OC)c(NCC(=O)O)c2)c(OC)c1 [Rigosertib (sodium)] (10 µM)
1: [8]
2: [15]
0: all other assays above

C=CC(=O)Nc1cccc(Oc2nc(Nc3ccc(N4CCN(C)CC4)cc3)nc3ccsc23)c1 [Olmutinib] (2.5 µM)
0: all assays above

C[C@H](CC[C@@H](O)C(C)(C)O)[C@H]1CC[C@@]2(C)[C@@H]3CC=C4[C@@H](CC[C@H](O)C4(C)C)[C@]3(C)[C@H](O)C[C@]12C [Mogrol] (10 µM)
0: all assays above

Cn1cc(-c2ccc3nnc(Sc4ccc5nn(C)cc5c4)n3n2)cn1 [c-Met inhibitor 1] (10 µM)
0: all assays above

CC(C)(C)NS(=O)(=O)c1cncc(-c2cc(F)c3nc(N)nn3c2)c1 (10 µM)
1: [1]
0: all other assays above

O=S(=O)(c1cccc2c(Cl)cccc12)N1CCCNCC1 (10 µM)
0: all assays above

C=CC(=O)Nc1cccc(Oc2nc(Nc3ccc(N4CCN(C)CC4)cc3)ncc2Cl)c1 (2.5 µM)
0: all assays above

COc1ccc(COc2cc3oc(=O)c4cc(C(C)O)ccc4c3cc2OC)cc1 (configuration not stated) [Palomid 529] (2.5 µM)
0: all assays above

Cn1c(=O)c(Oc2ccc(F)cc2F)cc2cnc(NC(CCO)CCO)nc21 [Pamapimod] (10 µM)
0: all assays above

CCN1C(C)(C)CC(Oc2ccc(C(=O)Nc3ccc(NC(=O)Nc4cc(C(C)(C)C)on4)cc3)nc2)CC1(C)C (10 µM)
0: all assays above

CNS(=O)(=O)Nc1nccc(Cc2c(C)c3ccc(Oc4ncccn4)cc3oc2=O)c1F (10 µM)
1: [9] | [10] | [15]
2: [16]
0: all other assays above

Cc1cc(/C=C2\CC/C(=C\c3cc(C)c(O)c(C)c3)C2=O)cc(C)c1O [Pentagamavunon-1] (2.5 µM)
0: all assays above

CC(=O)Nc1nc(C)c(-c2ccc(Cl)c(S(=O)(=O)NCCO)c2)s1 (10 µM)
0: all assays above

CC(C)=CCC/C(C)=C/CC/C(C)=C/CSc1ccccc1C(=O)O [Salirasib] (10 µM)
0: all assays above

CNC(=O)c1c(C)oc2cc(Oc3ncnc4cc(OC)c(OC)cc34)ccc12 [Fruquintinib] (10 µM)
0: all assays above

Cn1cc(-c2cn3nccc3c(-c3cnn([C@]4(CC#N)C[C@@H](C#N)C4)c3)n2)cn1 (10 µM)
0: all assays above

CC(C)(C)S(=O)(=O)c1ccc2nccc(Nc3n[nH]c4ccc(F)cc34)c2c1 (10 µM)
0: all assays above

COc1ccc(-c2cnc3c(-c4cccc5ncccc45)cnn3c2)cc1 (10 µM)
0: all assays above

CNS(=O)(=O)C[C@H]1CC[C@H](N(C)c2[nH]cnc3nccc2-3)CC1 [Oclacitinib (maleate)] (10 µM)
0: all assays above

C[C@@H](N)COc1ccc(-c2cnc3ccc(N[C@H](C)c4cccc(F)c4)nn23)cc1 [Taletrectinib] (2.5 µM)
0: all assays above

O=C(N/N=C/c1ccc([N+](=O)[O-])o1)c1ccc(O)cc1 [Nifuroxazide] (10 µM)
2: [8] | [11]
1: [16]
3: [9] | [10] | [15]
0: all other assays above

Cc1cccc(Cn2nc(C)c3c(NC(=O)c4csc5c(N)ncnc45)cccc32)n1 (10 µM)
0: all assays above

O=C(Nc1nccs1)C(c1cc(F)ccc1O)N1Cc2ccccc2C1=O (configuration not stated) (10 µM)
0: all assays above

COc1ncc2cc(C(=O)Nc3cc(C(=O)NCc4cccc(Cl)c4)ccc3Cl)c(=O)[nH]c2n1 (2.5 µM)
0: all assays above

CC(=O)Nc1nc(C)c(-c2cc3c(c(S(C)(=O)=O)c2)C(=O)N([C@@H](C)C2CC2)C3)s1 (2.5 µM)
0: all assays above

O=C(N=c1sccn1Cc1ccccc1)c1c[nH]c2ncccc12 (10 µM)
0: all assays above

Cn1sc(=O)n(Cc2ccccc2)c1=O (10 µM)
0: all assays above

C[C@@H]1CC[C@]2(C(=O)O)CC[C@]3(C)C(=CC[C@@H]4[C@@]5(C)CC[C@H](O)[C@@](C)(CO)[C@@H]5CC[C@]43C)[C@@H]2[C@]1(C)O [Rotundic acid] (10 µM)
0: all assays above

Pulled one by one from above, 2 records:
COc1cc(OC)c(/C=C/S(=O)(=O)Cc2ccc(OC)c(NCC(=O)O)c2)c(OC)c1 [Rigosertib (sodium)] (10 µM)
1: [8]
2: [15]
0: all other assays above

Cn1c(=O)c(Oc2ccc(F)cc2F)cc2cnc(NC(CCO)CCO)nc21 [Pamapimod] (10 µM)
0: all assays above

(further entries)

Cc1cc(Nc2ncc(Cl)c(Nc3ccccc3S(=O)(=O)C(C)C)n2)c(OC(C)C)cc1C1CCN(CC(=O)NCCNc2cccc3c2C(=O)N(C2CCC(=O)NC2=O)C3=O)CC1 (configuration not stated) (10 µM)
0: all assays above
